The list is a part of this screen's results and no random one: it is rich in T/C values a quarter to a half above the control, in often repeated tests (any T/C) and in doses without a T/C. Further doses and runs are listed elsewhere. T/C gives the treated animals as a percentage of the vehicle group. Schedules are NCI's codes, read here as Q, the interval in days (D) or hours (H), X, the number of doses. Some T/C values carry the count of animals alive at the toxicity check (mostly the fifth day); where none is given, no animal had died by that day. Some entries give survivors of the animals treated and no T/C: the source holds a T/C of zero for them, seemingly a mark for toxic or unscored doses. Counts of survivors are from the toxicity check (mostly the fifth day) where no day follows; animals may have died later. Some entries were tested several times; the results are listed from low to high.
Tested on: CD8F1 mice, subcutaneous mammary adenocarcinoma, T/C%
Test: NCI In Vivo Anticancer Drug Screen. Data for tumor model Mammary Adenocarcinoma CD8F1 (subcutaneous) in CD8F1
Conditions: higher T/C = larger tumour
Procedure, shortened: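 Mice carrying transplanted tumors received test compound, and survival or tumor size was recorded. Each value is the treated-group measurement divided by the corresponding measurement in vehicle-dosed controls.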

[1] = T/C endpoint: median tumor weight change, dose: 250.0 mg/kg/injection, schedule: Q01DX001 (ip), vehicle: water
[2] = T/C endpoint: median tumor weight change, dose: 250.0 mg/kg/injection, schedule: Q01DX001 (ip), vehicle: saline with Tween-80

How did the T/C (T/C endpoint: median tumor weight change, dose: 125.0 micrograms/kg/injection, schedule: Q01DX001 (ip), vehicle: Klucel (hydroxypropylcellulose) (HPC), evaluated on day 33) turn out when `COc1cc2cc(c1Cl)N(C)C(=O)C[C@H](OC(=O)[C@H](C)N(C)C(C)=O)[C@]1(C)O[C@H]1[C@H](C)[C@@H]1C[C@@](O)(NC(=O)O1)[C@H](OC)C=C/C=C(\C)C2` was run?
The T/C was 136 % of control.

And the survivor count (T/C endpoint: median tumor weight change, dose: 2000.0 micrograms/kg/injection, schedule: Q01DX001 (ip), vehicle: Klucel (hydroxypropylcellulose) (HPC))?
The survivor count was 2 of 10 on day 36.

Which results are given for `COc1cc2c(c(OC)c1OC)-c1c(cc3c(c1OC)OCO3)CC(C)C(C)(O)C2OC(=O)c1ccccc1` (configuration not stated)?
T/C (T/C endpoint: median tumor weight change, dose: 62.0 mg/kg/injection, schedule: Q01DX001 (ip), vehicle: saline + Tween-80 + alcohol, evaluated on day 28): 133 % of control; T/C (T/C endpoint: median tumor weight change, dose: 1000.0 mg/kg/injection, schedule: Q01DX001 (ip), vehicle: saline + Tween-80 + alcohol, evaluated on day 28): 135 % of control

How did the T/C (T/C endpoint: median tumor weight change, dose: 10.0 mg/kg/injection, schedule: Q01DX001 (ip), vehicle: saline, evaluated on day 32) turn out when `Cc1c2ccccc2cc2cccc[n+]12` was run?
The T/C was 136 % of control.

And the survivor count (T/C endpoint: median tumor weight change, dose: 80.0 mg/kg/injection, schedule: Q01DX001 (ip), vehicle: saline)?
Its survivor count is 4 of 10 on day 32.

And the survivor count (T/C endpoint: median tumor weight change, dose: 100.0 mg/kg/injection, schedule: Q01DX001 (ip), vehicle: saline)?
Its survivor count is 1 of 10 on day 29.

What about the survivor count (T/C endpoint: median tumor weight change, dose: 160.0 mg/kg/injection, schedule: Q01DX001 (ip), vehicle: saline) of the same compound?
Its survivor count is 0 of 10 on day 32.

What about the survivor count (T/C endpoint: median tumor weight change, dose: 200.0 mg/kg/injection, schedule: Q01DX001 (ip), vehicle: saline) of the same compound?
The survivor count was 0 of 10 on day 29.

And the survivor count (T/C endpoint: median tumor weight change, dose: 400.0 mg/kg/injection, schedule: Q01DX001 (ip), vehicle: saline)?
The survivor count was 0 of 10 on day 29.

What about the survivor count (T/C endpoint: median tumor weight change, dose: 800.0 mg/kg/injection, schedule: Q01DX001 (ip), vehicle: saline) of the same compound?
Its survivor count is 0 of 10 on day 29.

For `COC1C(C)OC(OC2CC(C)(O)Cc3cc4c(c(O)c32)C(=O)c2c(O)cc3c(c2C4=O)OC2OC3(C)C(O)C(N(C)C)C2O)C(OC)C1(C)OC` (configuration not stated), which T/C (T/C endpoint: median tumor weight (est.), dose: 1.25 mg/kg/injection, schedule: Q07DX005 (ip), vehicle: other, evaluated on day 32) is on record?
Its T/C is 127 % of control.

`C1CC[N-]CC1.[Cl][Pt+2][Cl].[NH-]C1CC1` was tested. Which survivor count (T/C endpoint: median tumor weight change, dose: 125.0 mg/kg/injection, schedule: Q01DX001 (ip), vehicle: distilled water + Tween-80) did it give?
Its survivor count is 5 of 10 on day 31.

And the survivor count (T/C endpoint: median tumor weight change, dose: 250.0 mg/kg/injection, schedule: Q01DX001 (ip), vehicle: distilled water + Tween-80)?
The survivor count was 2 of 10 on day 31.

What about the survivor count [1] of the same compound?
The survivor count was 4 of 10 on day 28.

And the survivor count (T/C endpoint: median tumor weight change, dose: 500.0 mg/kg/injection, schedule: Q01DX001 (ip), vehicle: distilled water + Tween-80)?
Its survivor count is 0 of 10 on day 31.

What about the survivor count (T/C endpoint: median tumor weight change, dose: 500.0 mg/kg/injection, schedule: Q01DX001 (ip), vehicle: water) of the same compound?
The survivor count was 0 of 10 on day 28.

How did the T/C (T/C endpoint: median tumor weight (est.), dose: 25.0 mg/kg/injection, schedule: Q07DX005 (ip), vehicle: saline with Tween-80, evaluated on day 30) turn out when `Cc1ccccc1SSc1ccccc1C` was run?
Its T/C is 129 % of control [9 of 10 alive].

`COC1C(/C=C/C(C)=O)OC2OC(C)(C)OC21` (configuration not stated) was tested. Which survivor count (T/C endpoint: median tumor weight (est.), dose: 400.0 mg/kg/injection, schedule: Q07DX005 (ip), vehicle: Klucel (hydroxypropylcellulose) (HPC)) did it give?
The survivor count was 2 of 10 on day 30.

With `C=C1N(C)c2ccccc2C1(C)C` as the compound, how does the survivor count [2] read?
The survivor count was 0 of 10 on day 32.

What about the survivor count (T/C endpoint: median tumor weight change, dose: 500.0 mg/kg/injection, schedule: Q01DX001 (ip), vehicle: saline with Tween-80) of the same compound?
Its survivor count is 0 of 10 on day 32.

And the survivor count (T/C endpoint: median tumor weight change, dose: 1000.0 mg/kg/injection, schedule: Q01DX001 (ip), vehicle: saline with Tween-80)?
The survivor count was 0 of 10 on day 32.

What about the survivor count (T/C endpoint: median tumor weight change, dose: 2000.0 mg/kg/injection, schedule: Q01DX001 (ip), vehicle: saline with Tween-80) of the same compound?
The survivor count was 0 of 10 on day 32.

Which results are given for `CCCCCCCCCCCCN1C(C)=CS/C1=C\C=C\c1scc(C)[n+]1CCCCCCCCCCCC`?
survivor count (T/C endpoint: median tumor weight change, dose: 62.5 mg/kg/injection, schedule: Q01DX001 (ip), vehicle: saline with Tween-80): 4 of 10 on day 36; survivor count (T/C endpoint: median tumor weight change, dose: 125.0 mg/kg/injection, schedule: Q01DX001 (ip), vehicle: saline with Tween-80): 0 of 10 on day 36; survivor count [2]: 0 of 10 on day 36

With `Nc1nc2ccc(NCc3ccc(C(=O)NC(CCC(=O)O)C(=O)O)cc3)cc2c(=O)[nH]1` (configuration not stated) as the compound, how does the T/C (T/C endpoint: median tumor weight change, dose: 50.0 mg/kg/injection, schedule: Q01DX001 (ip), vehicle: saline with Tween-80, evaluated on day 28) read?
The T/C was 126 % of control.

What about the survivor count (T/C endpoint: median tumor weight change, dose: 200.0 mg/kg/injection, schedule: Q01DX001 (ip), vehicle: saline with Tween-80) of the same compound?
Its survivor count is 5 of 10 on day 28.

Which results are given for `O=C(C1CO1)C(Cl)(Cl)Cl` (configuration not stated)?
survivor count (T/C endpoint: median tumor weight change, dose: 31.0 mg/kg/injection, schedule: Q01DX001 (ip), vehicle: saline): 4 of 10 on day 31; survivor count (T/C endpoint: median tumor weight change, dose: 62.0 mg/kg/injection, schedule: Q01DX001 (ip), vehicle: saline): 3 of 10 on day 29 and 4 of 10 on day 31; T/C (T/C endpoint: median tumor weight change, dose: 62.5 mg/kg/injection, schedule: Q01DX001 (ip), vehicle: saline, evaluated on day 32): 131 % of control; survivor count (T/C endpoint: median tumor weight change, dose: 125.0 mg/kg/injection, schedule: Q01DX001 (ip), vehicle: saline): 1 of 10 on day 29; survivor count (T/C endpoint: median tumor weight change, dose: 250.0 mg/kg/injection, schedule: Q01DX001 (ip), vehicle: saline): 0 of 10 on day 29 and 0 of 10 on day 32; survivor count (T/C endpoint: median tumor weight change, dose: 500.0 mg/kg/injection, schedule: Q01DX001 (ip), vehicle: saline): 0 of 10 on day 29 and 0 of 10 on day 32; survivor count (T/C endpoint: median tumor weight change, dose: 1000.0 mg/kg/injection, schedule: Q01DX001 (ip), vehicle: saline): 0 of 10 on day 29 and 0 of 10 on day 32

For `CCOC(OCC)C(=O)OCC(=O)[C@]1(O)Cc2c(O)c3c(c(O)c2[C@@H](OC2CC(N)C(O)C(C)O2)C1)C(=O)c1c(OC)cccc1C3=O` (some centres not stated), which survivor count (T/C endpoint: median tumor weight (est.), dose: 8.0 mg/kg/injection, schedule: Q07DX005 (ip), vehicle: saline) is on record?
The survivor count was 2 of 10 on day 30.

What about the survivor count (T/C endpoint: median tumor weight (est.), dose: 16.0 mg/kg/injection, schedule: Q07DX005 (ip), vehicle: saline) of the same compound?
The survivor count was 0 of 10 on day 30.

What about the survivor count (T/C endpoint: median tumor weight (est.), dose: 16.0 mg/kg/injection, schedule: Q07DX005 (ip), vehicle: water) of the same compound?
Its survivor count is 1 of 10 on day 30.

What about the survivor count (T/C endpoint: median tumor weight (est.), dose: 32.0 mg/kg/injection, schedule: Q07DX005 (ip), vehicle: water) of the same compound?
Its survivor count is 0 of 10 on day 30.

How did the survivor count (T/C endpoint: median tumor weight (est.), dose: 64.0 mg/kg/injection, schedule: Q07DX005 (ip), vehicle: suspension in saline) turn out when `CN(C)C(=O)c1cccc(COc2ccc(N3C(N)=NC(N)=NC3(C)C)cc2Cl)c1` was run?
Its survivor count is 2 of 10.

How did the T/C (T/C endpoint: median tumor weight (est.), dose: 0.25 mg/kg/injection, schedule: Q07DX005 (ip), vehicle: water, evaluated on day 32) turn out when `CCC1=C[C@H]2CN(CCc3c([nH]c4ccccc34)[C@@](C(=O)OC)(c3cc4c(cc3OC)N(C)[C@H]3[C@@](O)(C(=O)NC)[C@H](OC(C)=O)[C@]5(CC)C=CCN6CC[C@]43[C@@H]65)C2)C1` was run?
The T/C was 139 % of control.

And the survivor count (T/C endpoint: median tumor weight (est.), dose: 2.0 mg/kg/injection, schedule: Q07DX005 (ip), vehicle: saline)?
Its survivor count is 4 of 10 on day 30.

And the survivor count (T/C endpoint: median tumor weight (est.), dose: 4.0 mg/kg/injection, schedule: Q07DX005 (ip), vehicle: saline)?
The survivor count was 0 of 10 on day 30.

And the survivor count (T/C endpoint: median tumor weight (est.), dose: 4.0 mg/kg/injection, schedule: Q07DX005 (ip), vehicle: water)?
The survivor count was 0 of 10 on day 32.

For `CC(Cc1ccc(O)c(O)c1)C(C)Cc1ccc(O)c(O)c1` (configuration not stated), which T/C (T/C endpoint: median tumor weight change, dose: 125.0 mg/kg/injection, schedule: Q01DX001 (ip), vehicle: saline, evaluated on day 28) is on record?
Its T/C is 134 % of control.

What about the T/C (T/C endpoint: median tumor weight change, dose: 250.0 mg/kg/injection, schedule: Q01DX001 (ip), vehicle: saline, evaluated on day 28) of the same compound?
The T/C was 137 % of control.

And the survivor count (T/C endpoint: median tumor weight change, dose: 2000.0 mg/kg/injection, schedule: Q01DX001 (ip), vehicle: saline)?
The survivor count was 3 of 10 on day 28.

Which results are given for `Nc1n[n+](-c2ccccc2)no1`?
survivor count (T/C endpoint: median tumor weight (est.), dose: 100.0 mg/kg/injection, schedule: Q07DX005 (ip), vehicle: water): 0 of 10 on day 30; survivor count (T/C endpoint: median tumor weight change, dose: 125.0 mg/kg/injection, schedule: Q01DX001 (ip), vehicle: water): 0 of 10 on day 31; survivor count [1]: 0 of 10 on day 31

With `Cc1ccoc1` as the compound, how does the survivor count (T/C endpoint: median tumor weight change, dose: 333.3 mg/kg/injection, schedule: Q03HX003 (ip), vehicle: saline with Tween-80) read?
Its survivor count is 0 of 10 on day 25.

`CCOC(C)C(/C=N/NC(N)=S)=NNC(N)=S` (configuration not stated) was tested. Which survivor count (T/C endpoint: median tumor weight (est.), dose: 400.0 mg/kg/injection, schedule: Q07DX005 (ip), vehicle: saline with Tween-80) did it give?
Its survivor count is 2 of 10 on day 30.
